{"sequences": {"note": "Protein sequences, listed by entry. Tags and fused reporters are not part of them. Residues count along the entry.", "UniProt P25705, residues 44-553": "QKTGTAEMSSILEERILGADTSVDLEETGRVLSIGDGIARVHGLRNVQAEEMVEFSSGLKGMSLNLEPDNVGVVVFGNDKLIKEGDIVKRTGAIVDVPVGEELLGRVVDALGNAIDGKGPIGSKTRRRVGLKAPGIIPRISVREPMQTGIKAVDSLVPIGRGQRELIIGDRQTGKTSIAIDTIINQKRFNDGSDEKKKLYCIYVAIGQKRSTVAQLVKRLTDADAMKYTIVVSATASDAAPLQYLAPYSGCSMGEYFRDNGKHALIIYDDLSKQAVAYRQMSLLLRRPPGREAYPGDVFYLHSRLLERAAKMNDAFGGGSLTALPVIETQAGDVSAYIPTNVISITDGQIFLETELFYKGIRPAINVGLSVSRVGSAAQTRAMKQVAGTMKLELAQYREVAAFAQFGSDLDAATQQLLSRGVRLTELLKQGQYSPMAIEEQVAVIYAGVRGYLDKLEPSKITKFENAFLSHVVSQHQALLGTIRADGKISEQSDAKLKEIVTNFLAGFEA"}, "source": "paper PMC9898794", "key": {"[1]": {"target": "T1, ATP5F1C (human (endogenous in HT29)) (UniProt P36542)", "T1 sequence": "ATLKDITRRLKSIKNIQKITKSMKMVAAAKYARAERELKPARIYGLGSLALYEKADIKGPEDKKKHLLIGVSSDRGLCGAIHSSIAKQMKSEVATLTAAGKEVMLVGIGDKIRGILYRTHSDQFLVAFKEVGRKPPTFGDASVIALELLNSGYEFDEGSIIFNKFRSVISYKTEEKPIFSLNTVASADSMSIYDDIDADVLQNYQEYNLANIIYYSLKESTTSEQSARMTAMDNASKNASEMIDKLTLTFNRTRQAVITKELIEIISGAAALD", "test": "SEC; SEC-MS as a1, only the HSP90i condition: HT29 cells treated 8 h with 62.5 nM tanespimycin"}, "[2]": {"target": "T1, ATP5F1C (human (endogenous in HT29))", "test": "SEC; SEC-MS: HT29 lysate (sonicated in PBS without detergent) on Superose 6 10/300 GL in PBS pH 7.2, 24 fractions, each digested and read by LC-MS/MS (label-free); cells treated 8 h with DMSO or 62.5 nM tanespimycin; co-elution of endogenous proteins"}}, "note": "Results are given in words; binding and its absence hold for the method and conditions named. Some results given as binding are weak or reduced against the parent protein; the word gives no strength.", "data": [{"substance": "ATP5F1A (from UniProt P25705 44-553)", "values": [{"measurement": "binding", "setting": "[1]", "result": "binds weakly"}, {"measurement": "binding", "setting": "[2]", "result": "binds"}]}]}
